From paper PMC3418296
These are yes or no findings as the source states them, for the method shown. Some binding calls cover weakened binding; strength is not graded here.

The chains behind the UniProt entries cited, without tags or fusion partners. Residues count along the entry.
UniProt P08581, residues 25-932: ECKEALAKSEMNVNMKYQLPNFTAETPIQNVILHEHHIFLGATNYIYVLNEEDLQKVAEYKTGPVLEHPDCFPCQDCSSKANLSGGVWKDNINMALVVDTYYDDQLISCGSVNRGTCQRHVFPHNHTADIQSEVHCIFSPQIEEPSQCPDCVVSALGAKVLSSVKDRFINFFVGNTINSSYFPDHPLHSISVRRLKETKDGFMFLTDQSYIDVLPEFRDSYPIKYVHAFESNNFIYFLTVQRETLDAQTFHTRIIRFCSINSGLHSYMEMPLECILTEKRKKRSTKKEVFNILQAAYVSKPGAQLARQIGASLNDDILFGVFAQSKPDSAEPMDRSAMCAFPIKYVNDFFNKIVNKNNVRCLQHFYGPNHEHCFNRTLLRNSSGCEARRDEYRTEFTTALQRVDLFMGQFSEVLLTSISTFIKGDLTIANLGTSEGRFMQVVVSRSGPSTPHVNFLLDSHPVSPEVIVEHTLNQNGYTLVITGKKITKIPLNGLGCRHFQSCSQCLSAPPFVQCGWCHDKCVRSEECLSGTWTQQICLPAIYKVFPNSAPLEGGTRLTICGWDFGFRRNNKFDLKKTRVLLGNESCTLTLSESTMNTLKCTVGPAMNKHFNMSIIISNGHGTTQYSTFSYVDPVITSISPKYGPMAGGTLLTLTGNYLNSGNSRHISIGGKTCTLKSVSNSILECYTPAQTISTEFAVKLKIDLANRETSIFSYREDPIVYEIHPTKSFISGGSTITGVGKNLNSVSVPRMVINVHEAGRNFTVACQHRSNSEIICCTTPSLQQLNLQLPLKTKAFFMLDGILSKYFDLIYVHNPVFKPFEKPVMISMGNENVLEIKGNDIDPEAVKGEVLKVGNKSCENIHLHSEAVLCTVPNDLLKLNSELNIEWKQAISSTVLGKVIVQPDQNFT
UniProt P14210, residues 32-728: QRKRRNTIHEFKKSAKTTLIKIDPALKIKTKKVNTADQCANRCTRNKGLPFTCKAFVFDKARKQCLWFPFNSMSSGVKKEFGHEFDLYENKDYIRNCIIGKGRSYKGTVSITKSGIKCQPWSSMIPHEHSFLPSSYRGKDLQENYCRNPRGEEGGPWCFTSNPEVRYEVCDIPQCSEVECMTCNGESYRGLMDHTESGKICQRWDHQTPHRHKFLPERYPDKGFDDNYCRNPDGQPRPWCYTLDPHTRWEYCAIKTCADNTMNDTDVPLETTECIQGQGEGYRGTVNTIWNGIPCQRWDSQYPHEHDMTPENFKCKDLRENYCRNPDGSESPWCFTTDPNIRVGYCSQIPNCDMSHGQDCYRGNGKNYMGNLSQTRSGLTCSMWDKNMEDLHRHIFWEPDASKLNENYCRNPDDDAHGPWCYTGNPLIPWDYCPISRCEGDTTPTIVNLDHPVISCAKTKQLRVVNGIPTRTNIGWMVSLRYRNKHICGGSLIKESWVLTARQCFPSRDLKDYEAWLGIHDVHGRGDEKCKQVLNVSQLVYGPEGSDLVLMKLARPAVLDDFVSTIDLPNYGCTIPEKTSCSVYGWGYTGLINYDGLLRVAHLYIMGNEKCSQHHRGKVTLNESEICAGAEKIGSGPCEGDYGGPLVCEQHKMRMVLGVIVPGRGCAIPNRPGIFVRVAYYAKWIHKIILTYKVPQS

Target: Fc tagged recombinant human c-Met (human) (UniProt P08581)
Assay: SPR; Biacore T-100, CM5 chip coated with 4000 RU protein A/G by amine coupling; Fc tagged c-Met loaded (350 RU) on flow cell 2, IgG-Fc (100 RU) on reference flow cell 1; HGF injected 60 s at 10 ul/min; HBS-P (10 mM HEPES pH 7.4, 150 mM NaCl, 0.05% P-20); reference-subtracted signal; both purified

## Hepatocyte Growth Factor (from UniProt P14210 32-728) (ligand)
  binding: binds
